In PubChem BioAssay AID1347076 (National Center for Advancing Translational Sciences (NCATS), 2019):
The whole screen tested about 400,000 compounds, of which about 13,000 (3.2%) were called active. Inconclusive results, whose numbers are uncertain, are shown with a selection of clear calls. The call rests on the fitted dose curve; in most records, active means well fitted cell-killing curve with a large enough effect; inconclusive means small, poorly fitted or top-dose-only effect, or effect the other way; inactive means flat fitted curve, though single readings scatter. Potencies of inconclusive entries are doubtful fits and often do not repeat.

experiment: qHTS assay for MDR1-selective chemotherapeutics: Primary screen using the drug-selected MDR subline cells KB-V1; conditions: KB-V1 MDR cells viability, CellTiter-Glo, 72 h; activity change, negative = cytotoxicity: at 46.1 µM (top of the series); further: nearly all actives have a fitted effect of over 60% in size
Outline: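 Readout: CellTiter-Glo luminescence, 10 min after addition. Cells: KB-V1 MDR subline, 72 h at 37 degrees C with compound. Analysis: corrected, normalized data fitted to concentration-effect curves.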
On the % scale 0 is the no-effect control and ±100 the full control effect; potency means the concentration at half of the fitted maximal effect.

SMILES	Potency	activity change, negative = cytotoxicity
COc1cc(NC(=O)C2CC3CCC2C3)c(OC)cc1Cl (stereo not drawn)	inactive	–
COc1ccc(NC(=O)CSc2nnc3ccc(-c4ccncc4)nn23)cc1	inconclusive: 7.31 µM [rising, partial curve, poor fit]	–
CCCCOC(=O)C1=C(C)Nc2ncnn2C1c1cc(OC)c(OC)cc1OC (stereo not drawn)	inconclusive: 5.17 µM [cytotoxic, full curve]	–
CCOC(=O)C1CCCN(CCC(C)c2ccccc2)C1 (stereo not drawn)	inconclusive: 13 µM [cytotoxic, partial curve, poor fit]	–
CN1CCN(C(=S)Nc2ccc(S(N)(=O)=O)cc2)CC1	inactive	–
CC(=O)c1c(C)n(-c2ccc(C)cc2)c2ccc(OC(=O)COc3ccccc3)cc12	inconclusive: 18.4 µM [cytotoxic, single point]	–
CC1CC(C)CN(C(=O)COC(=O)c2nccnc2N)C1 (stereo not drawn)	inconclusive: 7.31 µM [rising, partial curve]	–
CN(C)CCN[C@H]1CCC2C3CC=C4C[C@@H](O)CC[C@]4(C)C3CC[C@@]21C (stereo partly drawn)	inactive	–
CCc1ccccc1N(C(=O)CCC(=O)Nc1cc(C)on1)C(C(=O)NC1CCCC1)c1ccco1 (stereo not drawn)	inconclusive: 20.6 µM [cytotoxic, partial curve]	–
COc1cc(NC(=O)CN2C(=O)C(=O)N(C3CCCC3)C2=O)cc(OC)c1	inconclusive: 29.1 µM [rising, single point]	–
O=C(Cc1ccccc1)Nc1ccc(Cl)cn1	inactive	–
COc1ccc(S(=O)(=O)N2CCN(Cc3cc4c(cc3Br)OCCO4)CC2)cc1	active: 14.6 µM	–
CCc1cc(C(=O)N(CC)CC(=O)Nc2c(F)cccc2F)sc1C	inactive	–
Cc1ccc2nc(CN3CCN(S(=O)(=O)c4ccc(C)c(C)c4)CC3)oc2c1	inactive	–
COc1ccc(C(=O)NCCOc2cccc(Oc3ccccc3)c2)cc1OC	inconclusive: 5.17 µM [cytotoxic, full curve, poor fit]	–
Cc1ccc2nc(-c3ccncc3)cc(C(=O)NCCc3ccc(F)cc3)c2c1	inconclusive: 2.06 µM [cytotoxic, full curve]	–
COc1cc(-c2ccno2)ccc1S(=O)(=O)N1CCN(c2ccccc2)CC1	inactive	–
CN(C)c1ccc(CNC(=O)C2CCN(S(=O)(=O)c3ccc4[nH]c(=O)ccc4c3)CC2)cc1	–	inconclusive: 41.9%
O=c1c2sccc2[nH]c(=S)n1Cc1ccccc1	inactive	–
O=C(Nc1ccccc1)C1=C(Nc2ccccc2)CSC1	inconclusive: 9.2 µM [rising, partial curve, poor fit]	–
O=C(CNC(=O)c1ccc(Br)cc1)c1ccccc1	inactive	–
Clc1ccc(/C=C/c2nc3ccccc3[nH]2)c(Cl)c1	inconclusive: 23.1 µM [cytotoxic, single point]	–
O=C(O)CC(NC(=O)C1c2ccccc2Oc2ccccc21)c1ccc(Cl)cc1 (stereo not drawn)	inactive	–
Cc1ccc(C2CC(=O)n3nc(-c4cccc(C)c4)nc3S2)cc1 (stereo not drawn)	–	inconclusive: -38% [cytotoxic]
CC(=O)c1cccc(NC(=O)COC(=O)c2ccccn2)c1	inconclusive: 0.0052 µM [rising, full curve, poor fit]	–

SMILES	Potency	activity change, negative = cytotoxicity
O=c1nccc(Nc2ccccc2)[nH]1	inactive	–
Cc1ccc(NC(=O)c2sc3ccccc3c2Cl)nc1	inconclusive: 16.4 µM [cytotoxic, single point]	–
O=C(Nc1ccccc1)N1CCN(c2nc(-c3ccccc3)ns2)CC1	inactive	–
Cc1cc(N2CCC(C)CC2)nc(-n2nc(C)cc2C)n1	inconclusive: 4.61 µM [cytotoxic, partial curve]	–
COc1ccc(OC)c(NC(=O)Cn2c(=O)n(-c3ccc(Cl)cc3)c(=O)c3c(C)c(C)sc32)c1	inconclusive: 0.259 µM [rising, full curve, poor fit]	–
O=C(CSc1nc2ccccc2c(=O)n1CCCN1CCOCC1)Nc1cccc(S(=O)(=O)N2CCCCCC2)c1	inconclusive: 23.1 µM [cytotoxic, partial curve, poor fit]	–
COc1ccc(Cl)cc1NC(=O)C1CCN(S(=O)(=O)c2ccc(F)cc2)CC1	–	inconclusive: -65.7%
COc1ccc(C(=O)N(c2ccc(C)cc2)S(=O)(=O)c2ccc(C)cc2)cc1	inconclusive: 20.6 µM [cytotoxic, single point]	–
Cc1ccc(N2C(=O)CS(=O)(=O)C23C(=O)N(Cc2ccc(Cl)cc2)c2ccccc23)cc1C (stereo not drawn)	inconclusive: 29.1 µM [cytotoxic, single point]	–
COc1ccc(-c2ccc(N(C)C)cc2)cc1[C@H]1[C@@H]2C=CCC[C@@]2(C)C(=O)N1Cc1ccccc1	inconclusive: 29.1 µM [cytotoxic, single point]	–
Cc1ccc(N2C(=O)CCSC23C(=O)N(Cc2ccc(F)cc2)c2ccccc23)cc1 (stereo not drawn)	inconclusive: 16.4 µM [cytotoxic, single point]	–
O=C(O)c1cnccn1	inactive	–
Cc1cc(C(=O)c2ccccc2)cc(C)c1O	inactive	–
COc1cc(C(=O)Nc2cc(-c3ccccc3)[nH]n2)cc(OC)c1OC	active: 18.4 µM	–
COc1ccc(C(=O)NC(C)c2nnc(SCC(=O)NC3CCCC3)n2C)cc1 (stereo not drawn)	inactive	–
O=C(NN1C(=O)c2ccccc2C1=O)C1CCCCC1	inconclusive: 20.6 µM [rising, single point]	–
CCn1c(SCC(=O)Nc2cc(C)on2)nc2c([nH]c3ccccc32)c1=O	inconclusive: 4.61 µM [cytotoxic, full curve]	–
Cc1ccccc1C(=O)Nc1nnc(SC(C)C)s1	inconclusive: 29.1 µM [cytotoxic, single point]	–
Cc1ccccc1C(=O)N1CCN=C1SCc1ccc([N+](=O)[O-])cc1	inconclusive: 9.2 µM [cytotoxic, partial curve]	–
COc1ccc(Nc2nc(-c3cccs3)nc3ccccc23)cc1	active: 18.4 µM	–
Cc1onc(-c2ccccc2Cl)c1C(=O)OCC(=O)N1CCN(c2ccccc2)CC1	active: 8.2 µM	–
CC1CCCCC1NC(=O)CNC(=O)c1cccs1 (stereo not drawn)	inactive	–
Cc1cccc(CC(=O)Nc2c(C(=O)Nc3cccc(F)c3)oc3ccccc23)c1	inactive	–
Cc1ccc(-n2c(SCC(=O)Nc3cc(C)on3)nc3c([nH]c4ccccc43)c2=O)cc1	inconclusive: 0.0082 µM [rising, full curve, poor fit]	–
COc1ccc(S(=O)(=O)N2CCC(C(=O)N[C@@H](C)C(=O)NC3CC3)CC2)cc1	inconclusive: 4.11 µM [rising, partial curve, poor fit]	–

SMILES	Potency	activity change, negative = cytotoxicity
N=c1c2c3c(sc2ncn1N)CCC3	inactive	–
Cc1cc(/C=C(\C#N)C(=O)N2CCCCC2)cc(C)c1O	inconclusive: 25.9 µM [cytotoxic, single point]	–
O=S(=O)(c1ccc(S(=O)(=O)N2CCOCC2)cc1)N1CCCC1	inconclusive: 4.61 µM [rising, full curve, poor fit]	–
CC(C)c1cccc(C(C)C)c1NC(=O)CN1C(=O)NC2(CCCCCCC2)C1=O	inconclusive: 20.6 µM [rising, single point]	–
COc1ccc(N(CC(=O)NCCSc2ccccc2)S(=O)(=O)c2ccccc2)cc1OC	inconclusive: 29.1 µM [cytotoxic, single point]	–
Cn1c(=O)c2c(nc(CN3CCN(c4ccccc4)CC3)n2Cc2ccccc2Cl)n(C)c1=O	active: 8.2 µM	–
CC(=O)c1cccc(Nc2cc(C)nc3c(C)cc(C)cc23)c1	active: 16.4 µM	–
CCCCn1c(N)c(N(CC)C(=O)Cc2ccc(S(=O)(=O)N3CCOCC3)s2)c(=O)[nH]c1=O	inconclusive: 25.9 µM [rising, single point]	–
CCC(C)N(C(=O)CCC(=O)Nc1cc(C)on1)C(C(=O)NC(C)(C)C)c1ccccc1Cl (stereo not drawn)	inconclusive: 5.17 µM [cytotoxic, partial curve, poor fit]	–
O=c1c2cc(N3CCOCC3)ccc2[nH]c(=S)n1CC1CCCO1 (stereo not drawn)	inconclusive: 13 µM [cytotoxic, partial curve, poor fit]	–
O=C(NCc1ccccc1)C1=C[C@H](c2csc3ccccc23)C[C@H](OCCCCO)O1	active: 7.31 µM	–
COC(=O)C1NN=C(C(=O)c2ccc(Br)cc2)C1c1cccc(Br)c1 (stereo not drawn)	active: 23.1 µM	–
O=C1CCCCC1Nc1ccc2ccccc2c1 (stereo not drawn)	inconclusive: 32.6 µM [cytotoxic, single point]	–
O=C(CSc1nnc2ccccn12)NNC(=O)c1ccccc1F	inconclusive: 16.4 µM [rising, single point]	–
C=CCNc1nc(-c2sc(NC(=O)CC)nc2C)cs1	inconclusive: 32.6 µM [cytotoxic, single point]	–
COc1ccc(C2CC(=O)N3CN(Cc4ccco4)CSC3=C2C#N)cc1 (stereo not drawn)	inactive	–
COCCC1CCCCN1C(=O)c1cccc(OC2CCN(S(C)(=O)=O)CC2)c1 (stereo not drawn)	inactive	–
COc1cccc(C(C(=O)NCc2ccccc2)N2CCN(c3ccccc3F)CC2)c1OC (stereo not drawn)	inconclusive: 2.91 µM [cytotoxic, full curve]	–
O=C(COC(=O)c1ccco1)NCC1CCCCC1	inconclusive: 29.1 µM [rising, single point]	–
Cc1nc(Nc2ccccc2)sc1-c1ccccc1	inconclusive: 20.6 µM [cytotoxic, single point]	–
CCCCN(C(=O)CSc1ncn[nH]1)c1c(N)n(Cc2ccccc2)c(=O)[nH]c1=O	inactive	–
Cc1cc(/C=C/c2ccnc3ccccc23)ccc1N	active: 23.1 µM	–
O=C(COc1ccccc1Cl)N(Cc1cccc(F)c1)C1CCS(=O)(=O)C1 (stereo not drawn)	inactive	–

By substructure, the entries above with a COOH group
SMILES	Potency	activity change, negative = cytotoxicity
O=C(O)CC(NC(=O)C1c2ccccc2Oc2ccccc21)c1ccc(Cl)cc1 (stereo not drawn)	inactive	–
O=C(O)c1cnccn1	inactive	–
